According to paper PMC9368268:
These are yes or no findings as the source states them, for the method shown. In cells and extracts the contact can be indirect. Some results given as binding are weak or reduced against the parent protein; the word gives no strength.

Sequences of proteins named here, by UniProt entry; tags and fusion partners are left off. Residues count along the entry.
UniProt P35363: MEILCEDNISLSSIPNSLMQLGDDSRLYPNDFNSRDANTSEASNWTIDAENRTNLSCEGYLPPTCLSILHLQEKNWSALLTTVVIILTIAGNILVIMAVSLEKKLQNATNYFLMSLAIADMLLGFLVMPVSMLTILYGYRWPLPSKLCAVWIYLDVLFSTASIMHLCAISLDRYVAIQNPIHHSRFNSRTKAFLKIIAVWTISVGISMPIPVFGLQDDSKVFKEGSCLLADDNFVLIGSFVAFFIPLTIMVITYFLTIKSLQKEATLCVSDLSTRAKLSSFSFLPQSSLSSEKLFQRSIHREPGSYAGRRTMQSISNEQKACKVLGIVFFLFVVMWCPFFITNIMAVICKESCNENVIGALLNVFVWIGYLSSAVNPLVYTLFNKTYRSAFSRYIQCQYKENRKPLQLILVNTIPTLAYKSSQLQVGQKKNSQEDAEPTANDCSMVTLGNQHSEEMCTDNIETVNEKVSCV
UniProt P15209, residues 32-821: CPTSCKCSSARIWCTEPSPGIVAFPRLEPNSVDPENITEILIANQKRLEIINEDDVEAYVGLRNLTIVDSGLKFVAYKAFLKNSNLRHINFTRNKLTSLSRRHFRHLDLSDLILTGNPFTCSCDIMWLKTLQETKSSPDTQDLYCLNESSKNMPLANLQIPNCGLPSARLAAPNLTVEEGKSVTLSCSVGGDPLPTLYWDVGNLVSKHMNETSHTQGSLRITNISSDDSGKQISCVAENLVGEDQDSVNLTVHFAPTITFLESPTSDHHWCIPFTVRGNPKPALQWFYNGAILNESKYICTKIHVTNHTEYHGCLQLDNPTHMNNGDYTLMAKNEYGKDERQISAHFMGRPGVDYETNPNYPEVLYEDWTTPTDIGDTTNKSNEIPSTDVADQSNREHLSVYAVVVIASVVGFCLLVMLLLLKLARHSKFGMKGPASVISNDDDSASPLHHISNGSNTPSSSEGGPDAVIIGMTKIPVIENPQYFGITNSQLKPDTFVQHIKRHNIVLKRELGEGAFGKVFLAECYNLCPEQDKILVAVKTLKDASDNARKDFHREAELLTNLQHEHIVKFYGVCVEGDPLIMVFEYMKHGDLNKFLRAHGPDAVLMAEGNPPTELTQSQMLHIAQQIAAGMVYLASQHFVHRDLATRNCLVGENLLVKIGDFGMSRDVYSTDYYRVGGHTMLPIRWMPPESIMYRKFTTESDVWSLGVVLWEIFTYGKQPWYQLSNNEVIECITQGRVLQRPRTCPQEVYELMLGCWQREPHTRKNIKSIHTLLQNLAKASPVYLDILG

Tests used:
[1] = biological target: Endogenous 5-HT2A receptor (mouse brain) (mouse (endogenous in C57BL/6J brain)) (UniProt P35363); experiment: co-IP; membrane-fraction lysates of frontal cortex, hippocampus and striatum of adult C57BL/6J mice; IP with goat anti-5-HT2A and Protein A-Sepharose; blot with anti-TrkB
[2] = biological target: Endogenous 5-HT2A receptor (mouse brain) (mouse (endogenous in C57BL/6J brain)) (UniProt P35363); experiment: proximity ligation; in situ PLA (Duolink) on 20 um mouse brain sections (frontal cortex, hippocampus, striatum) with anti-5-HT2A and anti-TrkB antibodies; negative control without primary antibodies
[3] = biological target: HA-tagged 5-HT2A receptor (mouse) (UniProt P35363); experiment: condition: only cells expressing only one receptor type mixed prior to lysis; co-IP; control: N1E-115 cells expressing only one receptor type (HA-5-HT2A or GFP-TrkB) mixed prior to lysis, analysed in parallel
[4] = biological target: HA-tagged 5-HT2A receptor (mouse) (UniProt P35363); experiment: co-IP; lysates of N1E-115 cells co-expressing HA-5-HT2A and GFP-TrkB; IP with anti-GFP by the methods and the legend (anti-HA by the results text); blot with anti-GFP and anti-HA

binding [1] | binding [2] | binding [3] | binding [4] | Substance
binds | binds |  |  | Endogenous TrkB receptor (mouse brain) (from UniProt P15209 32-821)
 |  | no binding | binds | GFP (mEGFP)-tagged TrkB (from UniProt P15209 32-821) (receptor)
